# Reference: the supplement of paper PMC8728848
# The list shows a part of the results.
# B1: HA-00510 (Pseudomonas aeruginosa), Q02V39_PSEAB (protein)
# chain: GVPIVNIATPNGAGLSNNHFRDYNVGANGLILNNATGKTQGTQLGGIILGNPNLKGQAAQVILNQVTGGNRSTLAGYTEVAGQSARVIVANPHGITCQGCGFINTPRATLTTGKPIMDGQRLERFQVDGGDIVVEGAELNVGNLEQFDLITRSAKLNAKLYAKNLNIVTGRNDVQADSLQATPRAADGSEKPQLAIDSSALGGMYAGAIRLVGTEQGVGVKLAGDMAASGGDIRIDASGKLSLAQASSQGDLKIAAQAVELNGKTYAGGSAEIRSAEELVNRQS
# Key:
# Assay in all cases: glycan array binding signal (z-score within array); higher = stronger binding
# Conditions in all cases: glycan notation: IUPAC condensed, linker removed
# [1] = target: Fuc(a1-3)[Gal(b1-4)]GlcNAc(b1-3)Gal(b1-3)[Fuc(a1-4)]GlcNAc
# How it was run: (§1)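 Glycan array data were curated from 3228 arrays in the Consortium for Functional Glycomics database and kept only where the protein sequence was available. Glycan names were converted to IUPAC-condensed notation, and columns mapping to the same glycan were averaged. The binding signal is a within-array Z-score, averaged across arrays of the same protein sequence at different concentrations or buffers and across linkers. Negative Z-scores can be read as non-binding.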
# [2] = target: Fuc(a1-3)[Gal(b1-4)]GlcNAc(b1-3)Gal(b1-4)[Fuc(a1-3)]GlcNAc
# How it was run: as §1
# [3] = target: Fuc(a1-3)[Gal(b1-4)]GlcNAc(b1-3)Gal(b1-4)[Fuc(a1-3)]GlcNAc(b1-3)Gal(b1-4)[Fuc(a1-3)]GlcNAc
# How it was run: as §1
# [4] = target: Fuc(a1-3)[Gal(b1-4)]GlcNAc(b1-3)GalNAc
# How it was run: as §1
# [5] = target: Fuc(a1-3)[Gal(b1-4)]GlcNAc(b1-6)GalNAc
# How it was run: as §1
# [6] = target: Fuc(a1-3)[Gal(b1-4)]GlcNAc(b1-6)[Gal(b1-3)GlcNAc(b1-3)]Gal(b1-4)Glc
# How it was run: as §1
# [7] = target: Fuc(a1-3)[Gal(b1-4)]GlcNAc6S
# How it was run: as §1
# [8] = target: Fuc(a1-3)[Gal3S(b1-4)]Glc
# How it was run: as §1
# [9] = target: Fuc(a1-3)[Gal3S(b1-4)]GlcNAc
# How it was run: as §1
# [10] = target: Fuc(a1-3)[Gal3S(b1-4)]GlcNAc6S
# How it was run: as §1
# [11] = target: Fuc(a1-3)[GalNAc(b1-4)]GlcNAc
# How it was run: as §1
# [12] = target: Fuc(a1-3)[GalNAc(b1-4)]GlcNAc6S
# How it was run: as §1
# Fuc(a1-4)GlcNAc = target: Fuc(a1-4)GlcNAc
# How it was run: as §1
# Fuc(b1-3)GlcNAc = target: Fuc(b1-3)GlcNAc
# How it was run: as §1
# Gal(a1-2)Gal = target: Gal(a1-2)Gal
# How it was run: as §1
# Gal(a1-3)Gal = target: Gal(a1-3)Gal
# How it was run: as §1
# Gal(a1-3)Gal(b1-3)GlcNAc = target: Gal(a1-3)Gal(b1-3)GlcNAc
# How it was run: as §1
# [13] = target: Gal(a1-3)Gal(b1-3)GlcNAc(b1-2)Man
# How it was run: as §1
# [14] = target: Gal(a1-3)Gal(b1-3)GlcNAc(b1-2)Man(a1-3)[Gal(a1-3)Gal(b1-3)GlcNAc(b1-2)Man(a1-6)]Man(b1-4)GlcNAc(b1-4)GlcNAc
# How it was run: as §1
# [15] = target: Gal(a1-3)Gal(b1-3)GlcNAc(b1-3)GalNAc
# How it was run: as §1
# [16] = target: Gal(a1-3)Gal(b1-3)GlcNAc(b1-6)GalNAc
# How it was run: as §1
# [17] = target: Gal(a1-3)Gal(b1-3)[Fuc(a1-4)]GlcNAc(b1-2)Man(a1-3)[Gal(a1-3)Gal(b1-3)[Fuc(a1-4)]GlcNAc(b1-2)Man(a1-6)]Man(b1-4)GlcNAc(b1-4)GlcNAc
# How it was run: as §1
# Gal(a1-3)Gal(b1-4)Glc = target: Gal(a1-3)Gal(b1-4)Glc
# How it was run: as §1
# Gal(a1-3)Gal(b1-4)GlcNAc = target: Gal(a1-3)Gal(b1-4)GlcNAc
# How it was run: as §1
# [18] = target: Gal(a1-3)Gal(b1-4)GlcNAc(b1-2)Man
# How it was run: as §1
# [19] = target: Gal(a1-3)Gal(b1-4)GlcNAc(b1-2)Man(a1-3)[Gal(a1-3)Gal(b1-4)GlcNAc(b1-2)Man(a1-6)]Man(b1-4)GlcNAc(b1-4)GlcNAc
# How it was run: as §1
# [20] = target: Gal(a1-3)Gal(b1-4)GlcNAc(b1-3)GalNAc
# How it was run: as §1
# [21] = target: Gal(a1-3)Gal(b1-4)GlcNAc(b1-6)GalNAc
# How it was run: as §1
# [22] = target: Gal(a1-3)Gal(b1-4)[Fuc(a1-3)]GlcNAc
# How it was run: as §1
# [23] = target: Gal(a1-3)Gal(b1-4)[Fuc(a1-3)]GlcNAc(b1-2)Man(a1-3)[Gal(a1-3)Gal(b1-4)[Fuc(a1-3)]GlcNAc(b1-2)Man(a1-6)]Man(b1-4)GlcNAc(b1-4)GlcNAc
# How it was run: as §1
# Gal(a1-3)GalNAc = target: Gal(a1-3)GalNAc
# How it was run: as §1
# [24] = target: Gal(a1-3)[Gal(a1-4)]Gal(b1-4)GlcNAc
# How it was run: as §1
# [25] = target: Gal(a1-4)Gal(b1-3)GlcNAc(b1-2)Man(a1-3)[Gal(a1-4)Gal(b1-3)GlcNAc(b1-2)Man(a1-6)]Man(b1-4)GlcNAc(b1-4)GlcNAc
# How it was run: as §1
# Gal(a1-4)Gal(b1-4)Glc = target: Gal(a1-4)Gal(b1-4)Glc
# How it was run: as §1
# Gal(a1-4)Gal(b1-4)GlcNAc = target: Gal(a1-4)Gal(b1-4)GlcNAc
# How it was run: as §1
# [26] = target: Gal(a1-4)Gal(b1-4)GlcNAc(b1-2)Man(a1-3)[Gal(a1-4)Gal(b1-4)GlcNAc(b1-2)Man(a1-6)]Man(b1-4)GlcNAc(b1-4)GlcNAc
# How it was run: as §1
# [27] = target: Gal(a1-4)Gal(b1-4)GlcNAc(b1-3)Gal(b1-4)Glc
# How it was run: as §1
# Gal(a1-4)GlcNAc = target: Gal(a1-4)GlcNAc
# How it was run: as §1
binder,measurement,setting,value
B1,glycan array binding signal (z-score),[1],0.01
same,glycan array binding signal (z-score),[2],-0.869
same,glycan array binding signal (z-score),[3],-1.21
same,glycan array binding signal (z-score),[4],0.368
same,glycan array binding signal (z-score),[5],0.131
same,glycan array binding signal (z-score),[6],-0.343
same,glycan array binding signal (z-score),[7],-0.833
same,glycan array binding signal (z-score),[8],-0.052
same,glycan array binding signal (z-score),[9],-0.484
same,glycan array binding signal (z-score),[10],1.52
same,glycan array binding signal (z-score),[11],0.257
same,glycan array binding signal (z-score),[12],-1.05
same,glycan array binding signal (z-score),Fuc(a1-4)GlcNAc,1.52
same,glycan array binding signal (z-score),Fuc(b1-3)GlcNAc,0.691
same,glycan array binding signal (z-score),Gal(a1-2)Gal,-0.633
same,glycan array binding signal (z-score),Gal(a1-3)Gal,0.182
same,glycan array binding signal (z-score),Gal(a1-3)Gal(b1-3)GlcNAc,-0.035
same,glycan array binding signal (z-score),[13],0.009
same,glycan array binding signal (z-score),[14],-0.086
same,glycan array binding signal (z-score),[15],0.55
same,glycan array binding signal (z-score),[16],-0.434
same,glycan array binding signal (z-score),[17],-0.05
same,glycan array binding signal (z-score),Gal(a1-3)Gal(b1-4)Glc,-0.295
same,glycan array binding signal (z-score),Gal(a1-3)Gal(b1-4)GlcNAc,0.209
same,glycan array binding signal (z-score),[18],-1.3
same,glycan array binding signal (z-score),[19],-0.397
same,glycan array binding signal (z-score),[20],-0.593
same,glycan array binding signal (z-score),[21],-0.007
same,glycan array binding signal (z-score),[22],0.184
same,glycan array binding signal (z-score),[23],1.94
same,glycan array binding signal (z-score),Gal(a1-3)GalNAc,-0.17
same,glycan array binding signal (z-score),[24],0.326
same,glycan array binding signal (z-score),[25],-0.302
same,glycan array binding signal (z-score),Gal(a1-4)Gal(b1-4)Glc,-1.36
same,glycan array binding signal (z-score),Gal(a1-4)Gal(b1-4)GlcNAc,0.581
same,glycan array binding signal (z-score),[26],1.27
same,glycan array binding signal (z-score),[27],0.322
same,glycan array binding signal (z-score),Gal(a1-4)GlcNAc,-1.73

# Reformatted: results already given.
binder | measurement | setting | value
B1 | glycan array binding signal (z-score) | [10] | 1.52
same | glycan array binding signal (z-score) | [20] | -0.593
same | glycan array binding signal (z-score) | [27] | 0.322
